Laboratory results published in article doi:10.1101/2021.01.04.424714 (bioRxiv, 2021).
No constants are given. Whether binding was seen depends on the method and setting. Binding calls can cover weak binding; strength is not graded here.

Experiments:
[1] = molecular target: T1, bacteriophage T7 gp15 core protein (bacteriophage T7) (UniProt P03725); test: negative-staining electron microscopy
T1 sequence: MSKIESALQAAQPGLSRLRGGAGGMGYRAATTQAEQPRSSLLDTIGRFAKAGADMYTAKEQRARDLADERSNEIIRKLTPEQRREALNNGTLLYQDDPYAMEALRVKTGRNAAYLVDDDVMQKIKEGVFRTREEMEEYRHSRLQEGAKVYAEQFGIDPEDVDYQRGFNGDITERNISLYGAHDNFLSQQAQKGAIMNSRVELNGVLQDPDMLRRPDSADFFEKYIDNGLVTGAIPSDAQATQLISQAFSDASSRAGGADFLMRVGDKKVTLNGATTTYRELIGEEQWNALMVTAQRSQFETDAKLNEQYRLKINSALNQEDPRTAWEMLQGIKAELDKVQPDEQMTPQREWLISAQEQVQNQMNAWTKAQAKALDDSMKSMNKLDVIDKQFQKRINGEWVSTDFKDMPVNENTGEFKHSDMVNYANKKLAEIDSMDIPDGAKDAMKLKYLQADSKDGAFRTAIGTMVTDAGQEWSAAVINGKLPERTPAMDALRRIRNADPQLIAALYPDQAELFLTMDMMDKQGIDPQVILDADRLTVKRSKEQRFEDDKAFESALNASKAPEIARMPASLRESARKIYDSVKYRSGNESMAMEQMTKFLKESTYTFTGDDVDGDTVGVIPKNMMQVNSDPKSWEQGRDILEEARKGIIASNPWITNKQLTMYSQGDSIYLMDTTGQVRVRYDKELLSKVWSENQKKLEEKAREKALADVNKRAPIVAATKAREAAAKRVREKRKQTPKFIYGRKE

[2] = molecular target: T1, bacteriophage T7 gp15 core protein (bacteriophage T7); test: cryo-EM structure

bacteriophage T7 gp16 core protein (from UniProt P03726)
binding [1]: binds
binding [2]: binds
